Results deposited as PubChem BioAssay AID602196 (INSERM, 2012)

- Screen: 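Genes whose knock-down alters cisplatin killing of lung cancer cells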
- System: human A549 lung cancer cells
- Reagents: siRNA pair against human genes
- Time to read-out: 48 h transfection before cisplatin; time from cisplatin to read-out not stated
- Conditions: cisplatin at a dose killing half of control-siRNA cells; exact dose and duration not given
- Detection: 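Shift in cisplatin death relative to control siRNA, from -50 (all cells die) to +50 (no cells die); siRNAs harmful on their own scored 0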
- Scale: two-siRNA summed score (-2 to +2): higher = both siRNAs protect from cisplatin killing; -2 means both sensitise; mean protection from cisplatin (shift in death): higher = protection from cisplatin killing
- Rule for the call: 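siRNAs harmful alone (LDH or WST-1) get 0; others get +1 for less and -1 for more cisplatin killing; genes are active when the two siRNAs give the same sign, summing to ±2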
- Meaning of the calls: active = both siRNAs shift cisplatin killing the same way; inactive = no consistent shift, or siRNA harmful alone
In all, the deposit lists about 23,000 reagents; this is an unselected part. In the full data, 455 (2%) are marked active. 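Active includes both protection and sensitisation; some change values fall well beyond the stated -50 to +50 range.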 A number with no mark means an inactive call. Further read-outs or replicates are left out here. No sequences are given here. Not stated in the record: the amount of reagent.

| gene knocked down | PubChem SID | two-siRNA summed score (-2 to +2) | mean protection from cisplatin (shift in death) (%) |
| --- | --- | --- | --- |
| MIR99AHG (mir-99a-let-7c cluster host gene) | SID131514884 | 0 | 8.4 |
| DPYSL2 (dihydropyrimidinase like 2) | SID131503343 | 0 | -10.8 |
| LOC441556 | SID131522253 | 1 | 17.2 |
| ZNF525 (zinc finger protein 525) | SID131507022 | 0 | -0.7 |
| KRTAP9-4 (keratin associated protein 9-4) | SID131515537 | 0 | 9.3 |
| MTERF2 (mitochondrial transcription termination factor 2) | SID131510723 | 0 | 3.5 |
| LOC391340 | SID131520574 | 1 | 10.3 |
| DTD2 (D-aminoacyl-tRNA deacylase 2) | SID131505249 | 0 | -3.5 |
| FCN1 (ficolin 1) | SID131507476 | 0 | -0.1 |
| PPME1 (protein phosphatase methylesterase 1) | SID131520342 | 1 | 9.6 |
| KHDC1 (KH domain containing 1) | SID131509449 | 0 | 2.2 |
| BTBD6 (BTB domain containing 6) | SID131522448 | 1 | 18.7 |
| VRK2 (VRK serine/threonine kinase 2) | SID131522924 | 2 (active) | 11.7 |
| LOC442625 | SID131515576 | 0 | 9.4 |
| VENTX (VENT homeobox) | SID131508732 | 0 | 1.4 |
| TMEM170A (transmembrane protein 170A) | SID131516347 | 0 | 10.7 |
| TAX1BP3 (Tax1 binding protein 3) | SID131503415 | 0 | -10.2 |
| LOC151320 | SID131502774 | -1 | 9.5 |
| SLC61A1 | SID131504343 | 0 | -5.7 |
| PIGU (phosphatidylinositol glycan anchor biosynthesis class U) | SID131519185 | 1 | 3.4 |
| LYPLA2 (lysophospholipase 2) | SID131507838 | 0 | 0.3 |
| IL1R2 (interleukin 1 receptor type 2) | SID131502738 | -1 | 4.7 |
| PTAR1 (protein prenyltransferase alpha subunit repeat containing 1) | SID131513672 | 0 | 6.9 |
| VWA7 (von Willebrand factor A domain containing 7) | SID131511911 | 0 | 4.9 |
| SCO2 (synthesis of cytochrome C oxidase 2) | SID131515368 | 0 | 9.1 |
| SNCAIP (synuclein alpha interacting protein) | SID131520698 | 1 | 10.8 |
| AKAP8 (A-kinase anchoring protein 8) | SID131522696 | 1 | 21.9 |
| RNF125 (ring finger protein 125) | SID131509825 | 0 | 2.6 |
| SLC7A5 | SID131522152 | 1 | 16.5 |
| KRT7 (keratin 7) | SID131507871 | 0 | 0.4 |
| LOC440478 | SID131522771 | 1 | 23.6 |
| EIF4G2 (eukaryotic translation initiation factor 4 gamma 2) | SID131508197 | 0 | 0.8 |
| CCN1 (cellular communication network factor 1) | SID131503244 | 0 | -11.7 |
| HLA-A (major histocompatibility complex, class I, A) | SID131514256 | 0 | 7.6 |
| HLA-A (major histocompatibility complex, class I, A) | SID131516801 | 0 | 11.7 |
| SLC24A1 | SID131508985 | 0 | 1.7 |
| PTH1R (parathyroid hormone 1 receptor) | SID131509036 | 0 | 1.7 |
| TNFSF15 (TNF superfamily member 15) | SID131502692 | -1 | 2.2 |
| CCDC54 (coiled-coil domain containing 54) | SID131509594 | 0 | 2.3 |
| LOC440145 | SID131515365 | 0 | 9.1 |
| MYL6B (myosin light chain 6B) | SID131517778 | 0 | 14.8 |
| TLN2 (talin 2) | SID131522866 | 1 | 27.7 |
| LOC400742 | SID131513731 | 0 | 6.9 |
| CENPH (centromere protein H) | SID131504024 | 0 | -6.8 |
| PPIH (peptidylprolyl isomerase H) | SID131511689 | 0 | 4.6 |
| MISP3 (MISP family member 3) | SID131510310 | 0 | 3.1 |
| MIF4GD (MIF4G domain containing) | SID131520921 | 1 | 11.5 |
| TGIF1 (TGFB induced factor homeobox 1) | SID131513913 | 0 | 7.2 |
| TACR2 (tachykinin receptor 2) | SID131516032 | 0 | 10.1 |
| LAPTM4B (lysosomal protein transmembrane 4 beta) | SID131507422 | 0 | -0.2 |
| RAB29 (RAB29, member RAS oncogene family) | SID131506381 | 0 | -1.6 |
| LOC388069 | SID131521951 | 1 | 15.5 |
| TMEM123 (transmembrane protein 123) | SID131504963 | 0 | -4.1 |
| LOC387880 | SID131523077 | 2 (active) | 18.9 |
| APOA4 (apolipoprotein A4) | SID131519964 | 1 | 8.2 |
| CD300C (CD300c molecule) | SID131504893 | 0 | -4.2 |
| KLHL12 (kelch like family member 12) | SID131517686 | 0 | 14.4 |
